Results are given in words; binding and its absence hold for the method and conditions named. Binding seen in cells or lysates may run through a third protein. Some binding calls cover weakened binding; strength is not graded here.
Experiments:
[1] = molecular target: myc-tagged SARS-CoV-2 M (SARS-CoV-2) (UniProt P0DTC5); test: co-IP
[2] = molecular target: Bril-M of HCoV-HKU1 (HCoV-HKU1) (UniProt Q5MQC7); test: pull-down; only the target purified
[3] = molecular target: Bril-M of HCoV-OC43 (HCoV-OC43) (UniProt Q01455); test: pull-down; only the target purified
[4] = molecular target: Bril-M of MERS-CoV (MERS-CoV) (UniProt K9N7A1); test: pull-down; only the target purified
[5] = molecular target: Bril-tagged SARS-CoV-2 M (SARS-CoV-2) (UniProt P0DTC5); test: pull-down; only the target purified
Flag-tagged VPS28 = Flag-tagged VPS28 (UniProt Q9UK41); test: co-IP

For “Flag-tagged VPS28 (from UniProt Q9UK41 1-221)”, the binding [1] was “binds”, the binding [2] was “binds” and the binding [3] was “binds”. For the same substance, the binding [4] was “binds” and the binding [5] was “binds”.

“myc-tagged SARS-CoV-2 M (from UniProt P0DTC5 1-222)” was tested, and the binding (Flag-tagged VPS28) was “binds”.

For “myc-tagged HCoV-OC43 M (from UniProt Q01455 1-230)”, the binding (Flag-tagged VPS28) was “binds”.

For “myc-tagged HCoV-HKU1 M (from UniProt Q5MQC7 1-223)”, the binding (Flag-tagged VPS28) was “binds”.

— PMC12153360
